The test addresses taxol-polymerized microtubules from bovine brain tubulin (bovine (purified from bovine brain)). The test is described as follows: condition: only in the presence of 2 mM Mg2+-ATP (1–12 µM Kif15 19-375, 5 µM MTs); co-sedimentation; MT pelleting assay with 2 mM Mg2+-ATP: Kif15 19-375 (1–12 µM) mixed with taxol-polymerized MTs (5 µM), 50 mM PIPES pH 6.9, 20 mM NaCl, 2 mM MgCl2, 1 mM DTT, room temperature 10 min, 100 000g at 25°C for 20 min, SDS–PAGE of supernatants and pellets; both purified.

These are yes or no findings as the source states them, for the method shown.

B1: Homo sapiens Kif15 motor domain and neck-linker region (Kif15 19-375) (domain or fragment, UniProt Q9NS87 19-375)
chain: QPSNEGDAIKVFVRIRPPAERSGSADGEQNLCLSVLSSTSLRLHSNPEPKTFTFDHVADVDTTQESVFATVAKSIVESCMSGYNGTIFAYGQTGSGKTFTMMGPSESDNFSHNLRGVIPRSFEYLFSLIDREKEKAGAGKSFLCKCSFIEIYNEQIYDLLDSASAGLYLREHIKKGVFVVGAVEQVVTSAAEAYQVLSGGWRNRRVASTSMNRESSRSHAVFTITIESMEKSNEIVNIRTSLLNLVDLAGSERQKDTHAEGMRLKEAGNINRSLSCLGQVITALVDVGNGKQRHVCYRDSKLTFLLRDSLGGNAKTAIIANVHPGSRCFGETLSTLNFAQRAKLIKNKAVVNEDTQG
B1: the binding entry is given as “no binding”.

The record behind these values is paper PMC3919264.
